Measured values reported in PMC11079228.

Molecular target: Huntingtin-interacting protein 1 (rat) (rat (endogenous in rat FLS))
Assay: affinity purification with mass spectrometry; rabbit anti-rat-HIP1 antibody (20 μg per sample) on Dynabeads M-270 Epoxy; total lysates of rat FLS (one DA and one R6 cell line, each in triplicate), starved 24 h, then PDGFβ 100 ng/mL 30 min; lysis in water with protease and phosphatase inhibitors by three freeze-thaw cycles; elution with 8 M urea, LysC and trypsin, nano-LC-MS/MS, label-free quantitation

| binding | Binder |
| --- | --- |
| binds | PURA (protein, UniProt P86252 1-138) FLKIAEVGAGGNKLTLSMSVAVEFRDYLGDFIEHYAQLGPSQPPDLAQAQDEPRYYMDLKENQRGPGLGSTQGQTIALPAQGLIEFRLIDDYGVEEEPAELPEGTSLTVDNKRFFFDVGSNKVSEVKPTYRFGHTFCK |
| binds | FLOT2 (protein, UniProt Q9Z2S9 1-428) MGNCHTVGPNEALVVSGGCCGSDYKQYVFGGWAWAWWCISDTQRISLEIMTLQPRCEDVETAEGVALTVTGVAQVKIMTEKELLAVACEQFLGKNVQDIKNVVLQTLEGHLRSILGTLTVEQIYQDRDQFAKLVREVAAPDVGRMGIEILSFTIKDVYDKVDYLSSLGKTQTAVVQRDADIGVAEAERDAGIREAECKKEMLDVKFMADTKIADSKRAFELQKSAFSEEVNIKTAEAQLAYELQGAREQQKIRQEEIEIEVVQRKKQIAVEAQEILRTDKELIATVRRPAEAEAHRIQQIAEGEKVKQVLLAQAEAEKIRKIGEAEAAVIEAMGKAEAERMKLKAEAYQKYGDAAKMALVLEALPQIAAKISAPLTKVDEIVVLSGDNSKVTSEVNRLLAELPASVHALTGVDLSKIPLIKNATGAQV |

Further lines, the binder ahead of its results:

| Binder | binding |
| --- | --- |
| DNM1 (protein, UniProt P21575 1-864) MGNRGMEDLIPLVNRLQDAFSAIGQNADLDLPQIAVVGGQSAGKSSVLENFVGRDFLPRGSGIVTRRPLVLQLVNSTTEYAEFLHCKGKKFTDFEEVRLEIEAETDRVTGTNKGISPVPINLRVYSPHVLNLTLVDLPGMTKVPVGDQPPDIEFQIRDMLMQFVTKENCLILAVSPANSDLANSDALKIAKEVDPQGQRTIGVITKLDLMDEGTDARDVLENKLLPLRRGYIGVVNRSQKDIDGKKDITAALAAERKFFLSHPSYRHLADRMGTPYLQKVLNQQLTNHIRDTLPGLRNKLQSQLLSIEKEVDEYKNFRPDDPARKTKALLQMVQQFAVDFEKRIEGSGDQIDTYELSGGARINRIFHERFPFELVKMEFDEKELRREISYAIKNIHGIRTGLFTPDLAFEATVKKQVQKLKEPSIKCVDMVVSELTSTIRKCSEKLQQYPRLREEMERIVTTHIREREGRTKEQVMLLIDIELAYMNTNHEDFIGFANAQQRSNQMNKKKTSGNQDEILVIRKGWLTINNIGIMKGGSKEYWFVLTAENLSWYKDDEEKEKKYMLSVDNLKLRDVEKGFMSSKHIFALFNTEQRNVYKDYRQLELACETQEEVDSWKASFLRAGVYPERVGDKEKASETEENGSDSFMHSMDPQLERQVETIRNLVDSYMAIVNKTVRDLMPKTIMHLMINNTKEFIFSELLANLYSCGDQNTLMEESAEQAQRRDEMLRMYHALKEALSIIGDINTTTVSTPMPPPVDDSWLQVQSVPAGRRSPTSSPTPQRRAPAVPPARPGSRGPAPGPPPAGSALGGAPPVPSRPGASPDPFGPPPQVPSRPNRAPPGVPSRSGQASPSRPESPRPPFDL | binds |
| DNM2 (protein, UniProt P39052 1-870) MGNRGMEELIPLVNKLQDAFSSIGQSCHLDLPQIAVVGGQSAGKSSVLENFVGRDFLPRGSGIVTRRPLILQLIFSKTEYAEFLHCKSKKFTDFDEVRQEIEAETDRVTGTNKGISPVPINLRVYSPHVLNLTLIDLPGITKVPVGDQPPDIEYQIKDMILQFISRESSLILAVTPANMDLANSDALKLAKEVDPQGLRTIGVITKLDLMDEGTDARDVLENKLLPLRRGYIGVVNRSQKDIEGRKDIRAALAAERKFFLSHPAYRHMADRMGTPHLQKTLNQQLTNHIRESLPTLRSKLQSQLLSLEKEVEEYKNFRPDDPTRKTKALLQMVQQFGVDFEKRIEGSGDQVDTLELSGGARINRIFHERFPFELVKMEFDEKDLRREISYAIKNIHGVRTGLFTPDLAFEAIVKKQVVKLKEPCLKCVDLVIQELISTVRQCTSKLSSYPRLREETERIVTTYIREREGRTKDQILLLIDIEQSYINTNHEDFIGFANAQQRSTQLNKKRAIPNQGEILVIRRGWLTINNISLMKGGSKEYWFVLTAESLSWYKDEEEKEKKYMLPLDNLKIRDVEKGFMSNKHVFAIFNTEQRNVYKDLRQIELACDSQEDVDSWKASFLRAGVYPEKDQAENEDGAQENTFSMDPQLERQVETIRNLVDSYVAIINKSIRDLMPKTIMHLMINNTKAFIHHELLAYLYSSADQSSLMEESAEQAQRRDDMLRMYHALKEALNIIGDISTSTVSTPVPPPVDDTWLQNTSSHSPTPQRRPVSSVHPPGRPPAVRGPTPGPPLIPMPVGATSSFSAPPIPSRPGPQNVFANNDPFSAPPQIPSRPARIPPGIPPGVPSRRAPAAPSRPTIIRPAEPSLLD | binds |

Results are given in words; binding and its absence hold for the method and conditions named. Binding seen in cells or lysates may run through a third protein. These calls come from enrichment with a bait or labelling near it, and not all partners need be listed.
